Values of other authors, collected in US11938138B2, “Methods for improved treatment of cancer” (Washington University, priority 2020, dated 2024).

Tested on: Hematologic and solid malignancies; 17 with NMC
Details: toxicity incidence; cited from earlier work

For `CCNC(=O)C[C@@H]1N=C(c2ccc(Cl)cc2)c2cc(OC)ccc2-n2c(C)nnc21` [GSK525762], the nausea is given as “(40%),”, the thrombocytopenia is given as “(44%),” and the vomiting is given as “(29%)”.
